Cleaved PARP after 72 h of treatment

All values are for the listed drug together with etoposide (0.1 µM): COc1cc([C@@H]2c3cc4c(cc3[C@@H](O[C@@H]3O[C@@H]5CO[C@@H](C)O[C@H]5[C@H](O)[C@H]3O)[C@H]3COC(=O)[C@H]23)OCO4)cc(OC)c1O

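Human melanoma cell lines in 1,536-well plates were treated with a pair of drugs for 72 h, then fixed, stained and imaged. Each value is the cleaved-PARP-positive fraction of nuclei relative to DMSO-treated wells, in %, so that 100 equals the control and higher values mean more apoptosis. Concentrations were fixed for each drug; these are the higher of two levels. The file gives one value for each pair and line, without errors, so small differences may be noise. The marker varies much from line to line, for technical or biological reasons.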 Only some of the drugs and lines screened are listed, without regard to their results.

| Partner | UACC-257 |
|---|---|
| Cc1cc(Nc2cc(N3CCN(C)CC3)nc(/C=C/c3ccccc3)n2)n[nH]1 at 0.2 µM | 74.8 |
| C[C@@H]1CCN(C(=O)CC#N)C[C@@H]1N(C)c1ncnc2[nH]ccc12 at 5 µM | 217 |
| Cn1cc(/C=C2\C(=O)Nc3cccnc32)c2ccccc21 at 2 µM | 47.4 |
| CCCCCCCCCCCC1=C(O)C(=O)C=C(O)C1=O at 6 µM | 101 |
| Oc1cc(-c2nc(-c3ccccc3)[nH]c2-c2ccncc2)ccc1Cl at 1 µM | 64.8 |
| Cc1cn(-c2cc(NC(=O)c3ccc(C)c(Nc4nccc(-c5cccnc5)n4)c3)cc(C(F)(F)F)c2)cn1 at 1 µM | 71.1 |
| c1cc(-c2cnn3cc(-c4ccc(OCCN5CCCCC5)cc4)cnc23)ccn1 at 2 µM | 84.3 |
| C/C(O)=C(\C#N)C(=O)Nc1cc(Br)ccc1Br at 10 µM | 64.3 |
| CC(C)(C)c1cnc(CSc2cnc(NC(=O)C3CCNCC3)s2)o1 at 0.05 µM | 125 |
| O=C(/C=C/c1cccnc1)NCCCCC1CCN(C(=O)c2ccccc2)CC1 at 0.05 µM | 41.3 |
| NC(=O)c1ccc(N(C(N)=O)c2c(F)cccc2F)nc1-c1ccc(F)cc1F at 2 µM | 142 |
| CCCCCCCCCCCCCCCCCCOP(=O)([O-])OC1CC[N+](C)(C)CC1 at 2 µM | 53.3 |
| COc1ccc2c(c1)CCC1C2CCC2(C)C(NCCCCCCN3C(=O)C=CC3=O)CCC12 (stereo not shown) at 2 µM | 78.7 |
| O=S(=O)(c1ccccc1)N(CC(F)(F)F)c1ccc(C(O)(C(F)(F)F)C(F)(F)F)cc1 at 7 µM | 63.7 |
| N.N.[Cl][Pt][Cl] at 8 µM | 314 |
| COc1ccc(C2=N[C@@H](c3ccc(Cl)cc3)[C@@H](c3ccc(Cl)cc3)N2C(=O)N2CCNC(=O)C2)c(OC(C)C)c1 at 0.5 µM | 74.8 |
| CC(C)CCN1c2nc(Nc3cc(F)c(O)c(F)c3)ncc2N(C)C(=O)C1C (stereo not shown) at 1 µM | 74.8 |
| O=C1NC(=O)/C(=C/c2ccc(-c3ccc(F)cc3O)o2)S1 at 5 µM | 58.1 |
| COc1cc(N2CCC(N3CCN(C)CC3)CC2)ccc1Nc1ncc(Cl)c(Nc2ccccc2S(=O)(=O)C(C)C)n1 at 0.4 µM | 64.1 |
| C[C@]12O[C@H](C[C@]1(O)CO)n1c3ccccc3c3c4c(c5c6ccccc6n2c5c31)CNC4=O at 0.02 µM | 86.8 |
| C[C@]1(O)C[C@@H](c2nc(-c3ccc4ccc(-c5ccccc5)nc4c3)c3c(N)nccn32)C1 at 2 µM | 45.6 |
| Cn1c(=O)n(-c2ccc(C(C)(C)C#N)cc2)c2c3cc(-c4cnc5ccccc5c4)ccc3ncc21 at 0.02 µM | 26.1 |
| O=C(O)c1ccc(-c2c[nH]c3ncc(-c4ccccc4)cc23)cc1C1CCCC1 at 0.8 µM | 117 |
| CCN(CC)CCCCNc1ncc2cc(-c3cc(OC)cc(OC)c3)c(NC(=O)NC(C)(C)C)nc2n1 at 0.5 µM | 61.2 |
| Cc1cc(SCc2sc(-c3ccc(C(F)(F)F)c(F)c3)nc2C)ccc1OCC(=O)O at 10 µM | 67.7 |
| O=c1cc(-c2cccc3c2Sc2ccccc2S3)oc(N2CCOCC2)c1 at 5 µM | 163 |
| Oc1nc(-c2ccc(C(F)(F)F)cc2)nc2c1CSCC2 at 10 µM | 27.1 |
| CN(C)S(=O)(=O)c1ccc2c(c1)/C(=C/c1cc3c([nH]1)CCCC3)C(=O)N2 at 2 µM | 34.9 |
| NC1(c2ccc(-c3nc4ccn5c(=O)[nH]nc5c4cc3-c3ccccc3)cc2)CCC1 at 2 µM | 95.5 |
| C#Cc1cccc(Nc2ncnc3cc(OCCOC)c(OCCOC)cc23)c1 at 4 µM | 30.0 |

Data from the primary screen of doi:10.1371/journal.pone.0140310, rounded.